Tested on: 59 human cancer cell lines representing nine tumour subpanels
Assay: NCI SRB assay, panel and subpanel summaries
Details: 10 μM, GI% higher than 20%

Question: How did the “Number of sensitive cell lines” value turn out when `Cc1cccc(-c2nc(Nc3ccccc3C(=O)O)c3ccccc3n2)c1` [6a, 2-((2-(m-Tolyl)quinazolin-4-yl)amino)benzoic acid] was run?
Answer: Its value is 56.

Question: How did the “Number of sensitive cell lines” value turn out when `Cc1ccc(-c2nc(Nc3ccccc3C(=O)O)c3ccccc3n2)cc1` [6b, 2-((2-(p-Tolyl)quinazolin-4-yl)amino)benzoic acid] was run?
Answer: Its value is 58.

Question: With `Cc1ccc(-c2nc(Nc3ccc(C(=O)O)cc3)c3ccccc3n2)cc1` [8b, 4-((2-(p-Tolyl)quinazolin-4-yl)amino)benzoic acid] as the compound, how does the “Number of sensitive cell lines” value read?
Answer: Its value is 30.

Question: Which “Number of sensitive cell lines” value does the source give for `Cc1ccc(-c2nc(Nc3cccc(C(=O)O)c3)c3ccccc3n2)cc1` [7b, 3-((2-(p-Tolyl)quinazolin-4-yl)amino)benzoic acid] here?
Answer: Its value is 21.

Question: For `COc1ccc(-c2nc(Nc3ccccc3C(=O)O)c3ccccc3n2)cc1` [6c, 2-((2–(4-Methoxyphenyl)quinazolin-4-yl)amino)benzoic acid], which “Number of sensitive cell lines” value is on record?
Answer: Its value is 56.

Question: For `Cc1cccc(-c2nc(Nc3ccc(C(=O)O)cc3)c3ccccc3n2)c1` [8a, 4-((2-(m-Tolyl)quinazolin-4-yl)amino)benzoic acid], which “Number of sensitive cell lines” value is on record?
Answer: The value was 25.
